Experimental data reported in the supplement of paper PMC5949888.
Most values lie at the floor of the assay. Slopes are relative: functional sequences can read slightly below zero.

System: Saccharomyces cerevisiae PS128 hsf1 delta, HSF1(1-493) fusion
Assay: growth estimate (transactivation domain function in HSF1 fusion, heat-shock survival) (a.u. (slope of normalised read count over time)); higher = stronger growth at 37°C, i.e. more transactivation activity
Details: library: random library

| Substance | growth estimate |
| --- | --- |
| PTSQIVRKIAGRI | < -0.25 |
| PTSRIYSREARPWGYIPQVI | < -0.25 |
| PTSVMSRDIAEAAAALRTRI | < -0.25 |
| PTTVVATSRE | < -0.25 |
| PTVMTSARTGSVRIGSGIRT | < -0.25 |
| PTYMGM | < -0.25 |
| PTYQRYSNIQRRFYRARSSL | < -0.25 |
| PVAFRPILY | < -0.25 |
| PVAGEPGFNLFLKS | < -0.25 |
| PVAPPIIRDLTGGCL | < -0.25 |
| PVASLCR | < -0.25 |
| PVCALGTRSVEYT | < -0.25 |
| PVCLKSWSIGPTLCHGIRLL | < -0.25 |
| PVDF | < -0.25 |
| PVDIGEHPRRRCVL | -0.167 |
| PVDIY | < -0.25 |
| PVDKANK | < -0.25 |
| PVDVNLRK | < -0.25 |
| PVDVQDVATMEEHSSYARLS | < -0.25 |
| PVFWSIWGWRQGSGAPRIRR | < -0.25 |
| PVGACTSDFSYRCQPVEHLV | < -0.25 |
| PVGDE | < -0.25 |
| PVGDVLVGGASEKRQAYAHL | < -0.25 |
| PVGQMQRR | < -0.25 |
| PVGRGPRVLFKRRGSIRACP | < -0.25 |

Five entries from above, comma-delimited.
Substance,growth estimate
PVCALGTRSVEYT,< -0.25
PVCLKSWSIGPTLCHGIRLL,< -0.25
PVDF,< -0.25
PVDIGEHPRRRCVL,-0.167
PVDIY,< -0.25

Additional results.

| Substance | growth estimate |
| --- | --- |
| PVGTMGGDYGTHIR | < -0.25 |
| PVHINCVRFVGRWRFRAE | < -0.25 |
| PVIASLWRRPESARVTPLAK | < -0.25 |
| PVICYSSYPTKWLLSLIWVQ | < -0.25 |
| PVIGPQSRTDGVWGLVPVSR | < -0.25 |
| PVILRKCGFGSISIGFPCGQ | < -0.25 |
| PVIMPRLRNPPLFSARLI | < -0.25 |
| PVIS | < -0.25 |
| PVITSLQAPEFRATGMQGLC | < -0.25 |
| PVIVIPNLDCRDPLFVLAHR | -0.246 |
| PVIWELRQTG | -0.245 |
| PVKEVLRLCEQLRVPLRTLL | < -0.25 |
| PVLFV | < -0.25 |
| PVLSILPSRVRVPKDEFSLN | < -0.25 |
| PVMDSCVGHICGPFSRRLAF | < -0.25 |
| PVPRRAAPRKSVNWCRRGLV | < -0.25 |
| PVR | < -0.25 |
| PVRSSHLQVWSNPETKSGA | -0.246 |
| PVRVCDL | < -0.25 |
| PVSAEGTSARKLVRCG | < -0.25 |
| PVSCMETRAHRGSATGRRTL | < -0.25 |
| PVSIPKWKQSGTELAVGSKL | < -0.25 |
| PVSKG | < -0.25 |
| PVSLTLRTRLRSNASVASIW | < -0.25 |
| PVSTCVIEQAYHLTAPRETQ | -0.243 |

| Substance | growth estimate |
| --- | --- |
| PVTGSKRDSYRVHIPQDGVP | < -0.25 |
| PVTKLRPLWLVLSWMIPNFK | < -0.25 |
| PVVGEETHTDTGQAV | < -0.25 |
| PVVPKLRLRDQYEAFRSVCI | < -0.25 |
| PVVSGCSVPLFVRGHGTAKS | < -0.25 |
| PVVSPDGLGWAPYLDRPGAY | < -0.25 |
| PVVVIPDRKVGFIRGEEVGH | < -0.25 |
| PVWQRKEQEVFLGDVIRVS | < -0.25 |
| PVY | < -0.25 |
| PWARWTQGFQRQRSSGP | < -0.25 |
| PWC | < -0.25 |
| PWGIYSYWN | < -0.25 |
| PWGQLTLTGCCSPVVGAGEW | < -0.25 |
| PWGSQDAHCARWCIFG | < -0.25 |
| PWGTSVTGWRGPDGVILGQR | < -0.25 |
| PWKTKPASASFAGRCV | -0.203 |
| PWLIQQELHLRGDDDPITLY | < -0.25 |
| PWPMTPRAERPLLTTCRANR | < -0.25 |
| PWPQGVAVLEDGGCFM | < -0.25 |
| PWQIEGPMCTRVWWSNRTLT | < -0.25 |
| PWRLRALVSTCS | -0.243 |
| PWTPQSYLRPMNKDVRSRSQ | < -0.25 |
| PWTR | < -0.25 |
| PYCELEELTNV | < -0.25 |
| PYDKFLLDFCHG | < -0.25 |

| Substance | growth estimate |
| --- | --- |
| PYEGNEKSRMS | < -0.25 |
| PYEPVAKPWF | < -0.25 |
| PYIIREMQRHRRFLNSAGSR | < -0.25 |
| PYIRFRGSGGL | < -0.25 |
| PYITAANKH | < -0.25 |
| PYLA | < -0.25 |
| PYLAE | < -0.25 |
| PYLTKTSVRKPRGRRLLTTV | < -0.25 |
| PYPAPVTACF | < -0.25 |
| PYSVHGLAVSVRLSSEFTCP | < -0.25 |
| PYVSAVAEPN | < -0.25 |
| PYVTVNVPRPILTRVY | < -0.25 |
| PYYGNLQYDQREGHKCRVLE | < -0.25 |
| PYYTHLVRR | < -0.25 |
| QAACFAGKRLANFWR | < -0.25 |
| QAASVQTASSHKQGTITRCI | < -0.25 |
| QADRY | < -0.25 |
| QAF | < -0.25 |
| QAGY | < -0.25 |
| QAIRGLYC | < -0.25 |
| QALCILGVGAPRRCSPPQST | < -0.25 |
| QALPQEGDNRRLFEVCDLSS | < -0.25 |
| QAPIQVFGGSGLNTMQYPI | < -0.25 |
| QAR | < -0.25 |
| QARF | < -0.25 |

| Substance | growth estimate |
| --- | --- |
| QARVMLKNTLLTGPDHQANP | < -0.25 |
| QATALDGSSGLSGEDSTFGL | < -0.25 |
| QATAVPVSTL | < -0.25 |
| QATTRDSWTYPF | < -0.25 |
| QAVLDCVSVLLAKI | < -0.25 |
| QAVSDSQRRVAIPVSVFPKP | < -0.25 |
| QAW | < -0.25 |
| QAWC | < -0.25 |
| QCCGKLLNGRRANKAVRAR | < -0.25 |
| QCCPGFQEVFWKMWLGAMDR | < -0.25 |
| QCGYGDAQLTL | < -0.25 |
| QCNKRYCGVEWMFAKSSAI | < -0.25 |
| QCRGVHKLGGRYVHGTIEPL | < -0.25 |
| QCRKGATSGASGWCRGYVLG | < -0.25 |
| QCRVRRVRLRSCPGSRSSVG | < -0.25 |
| QCSRMRNHLAPRISMGTPAP | < -0.25 |
| QCTPSSVRFRVTCFHESVSS | < -0.25 |
| QDAMAPPLLRLLPRTCRCVV | < -0.25 |
| QDCKRENS | < -0.25 |
| QDDRAKSFTV | < -0.25 |
| QDFKQGAVFDEEPVAELA | < -0.25 |
| QDGYFHYSRPCSIPAECYNQ | < -0.25 |
| QDKSRGPPGPRAAKNPCLRT | < -0.25 |
| QDQEAGDMVP | < -0.25 |
| QDRTLGSRKIQLAVTCPITC | < -0.25 |

6 neighbouring entries out of the list so far, for reference:

| Substance | growth estimate |
| --- | --- |
| PVGACTSDFSYRCQPVEHLV | < -0.25 |
| PVGDE | < -0.25 |
| PVGDVLVGGASEKRQAYAHL | < -0.25 |
| PVGQMQRR | < -0.25 |
| PVGRGPRVLFKRRGSIRACP | < -0.25 |
| PVGTMGGDYGTHIR | < -0.25 |

2 entries from above, reformatted.
Substance,growth estimate
PVGACTSDFSYRCQPVEHLV,< -0.25
PVGDE,< -0.25

Following part

| Substance | growth estimate |
| --- | --- |
| QDRTSEEQHRMKTITRRLRA | < -0.25 |
| QDVALACRGCGRTGRTSKGL | < -0.25 |
| QDVHGRDWLLDQVAEQIKDG | < -0.25 |
| QDVHYPLLVNGSIRGASTRH | < -0.25 |
| QDYCRHGCEVQIH | < -0.25 |
| QEAKARRGLAFAKSARAQCG | < -0.25 |
| QEASTGRMSEQIQCGAPSYF | < -0.25 |
| QECAHSN | < -0.25 |
| QEFFCALRLNVVRSREVSVR | < -0.25 |
| QEHFWRSLRLA | < -0.25 |
| QELS | < -0.25 |
| QELYFGVKISSNTRSTNPMG | < -0.25 |
| QEMTRIHDLGSGSVNGTDKC | -0.246 |
| QENV | < -0.25 |
| QERPVQWVSGSGLRLGTGCT | < -0.25 |
| QESKDGVPRRRTCTFMTIEG | < -0.25 |
| QEWSNSRHCPDWNTPVDKRP | < -0.25 |
| QFAPFRYRQSTKRDPCCSAP | < -0.25 |
| QFCA | < -0.25 |
| QFCLSCLGSDEWVIRDVVAI | < -0.25 |
| QFDAQGGGAEALVFRGVLIT | < -0.25 |
| QFDSERRAMSCSIDRTHGRW | < -0.25 |
| QFGGDNNHREQMNDTSAKAG | < -0.25 |
| QFHRAL | -0.229 |
| QFLGFVTLVAGPALLIWESR | < -0.25 |

| Substance | growth estimate |
| --- | --- |
| QFP | -0.25 |
| QFVGEGTRDACICLYAGNGD | -0.0944 |
| QFVSLSADQFCPDRSVNPLA | < -0.25 |
| QGAGATQSR | < -0.25 |
| QGAGQSRPT | < -0.25 |
| QGAGRGLASSWEAECLAVSR | < -0.25 |
| QGAKKDGRQTWNFGIQSLTS | < -0.25 |
| QGASQSLTKYTAVRAPGSKA | < -0.25 |
| QGAYMGTGIESVSSEDIENS | < -0.25 |
| QGDPDVRKKYATLTTPCRCH | < -0.25 |
| QGHRV | < -0.25 |
| QGIREVTGCASPIHTNSVRP | < -0.25 |
| QGKEDSAAMPYARVPRLVPT | < -0.25 |
| QGLPSQP | < -0.25 |
| QGLQVLTDSFLRAS | < -0.25 |
| QGNRSFGCIVYASYSGTSLE | < -0.25 |
| QGPDL | -0.202 |
| QGPTPAWTVGPQRTCWPANA | < -0.25 |
| QGR | < -0.25 |
| QGREEGPPTGVR | < -0.25 |
| QGRGEKLVRLLVVGASYYVP | < -0.25 |
| QGRWFENLMG | < -0.25 |
| QGSGGVNVLREDLIPRPGPE | < -0.25 |
| QGVIGF | < -0.25 |
| QGVSEAESY | < -0.25 |

| Substance | growth estimate |
| --- | --- |
| QGWCRARICGPHPLGSRDSV | < -0.25 |
| QGWFGDSDLNRDWDVVRLTP | < -0.25 |
| QGWRPRNEDR | < -0.25 |
| QGYLGRHRSQN | < -0.25 |
| QHEHDIWPNGNIGSLNPAIL | < -0.25 |
| QHESGSGVIGLRFAVS | -0.198 |
| QHFGRMNLGRC | < -0.25 |
| QHMD | < -0.25 |
| QHPAHPAFTFLVQCGWVRPG | < -0.25 |
| QHRGSGPMRTLRA | < -0.25 |
| QHVQRVQMDFTAAGGEARSP | < -0.25 |
| QICSGQGVILRFSYDRTGTT | < -0.25 |
| QIGLRVRY | < -0.25 |
| QIGLTYLCVFGGGSLV | < -0.25 |
| QIIPGEESSWLAMRKTGRKQ | < -0.25 |
| QILEGKFHPTGQRVRNLVGR | < -0.25 |
| QILSLHFQYV | < -0.25 |
| QILT | < -0.25 |
| QIQATWRPHDKFGRKFTMTP | < -0.25 |
| QIRFGTLLTPDIFFHRTSGG | < -0.25 |
| QIRN | < -0.25 |
| QISVHTLPATPKRQNRPPPS | < -0.25 |
